No constants are given. Whether binding was seen depends on the method and setting. Some results given as binding are weak or reduced against the parent protein; the word gives no strength.

The target in this experiment is SyB-Cph1 (GAF-PHY) chromoprotein assembled with PCB (Synechococcus sp. OS Type B′). The experiment can be described thus: size exclusion chromatography (Superose 6), non-denaturing; homodimerisation. On the technique in general: In gel filtration, larger molecules generally elute earlier.

B1: SyB-Cph1 (GAF-PHY) chromoprotein assembled with PCB (protein)
chain: MDTETWAAAARPSRDALINRITHQIRQSLELDQILRATVEEVRAFLGTDRVKVYRFDPEGHGTVVAEARGGERLPSLLGLTFPAGDIPEEARRLFRLAQVRVIVDVEAQSRSISQPESWGLSARVPLGEPLQRPVDPCHVHYLKSMGVASSLVVPLMHHQELWGLLVSHHAEPRPYSQEELQVVQLLADQVSIAIAQAELLEQARQKAQQERLINQIAALVYSPLHPETTLTTVLEQLAAGLQGIGARLRIHFMGADTLCCHGVQPPASYDTWLQEQLGRAGGAGGWVKMWSLSHLEKWPELQEQMKQTPIRGLLVAQLAWNDQPVGWLSVFRGAVYQETHWAGYRWFTQGDPRQELPLISFAAWRELKIDEPKAWSAAEQELMSRVGVHLALSITQNQLYRQLQTLNARLEQEVQERTAAHHHHHH
modifications: phycocyanobilin (PCB) covalently bound at Cys-138
B1: the binding entry was “binds”.

These data come from patent publication US20090061444A1 (WISCONSIN ALUMNI RESEARCH FOUNDATION, published 2009).
